Data published in publication PMC4104448.
No constants are given. Whether binding was seen depends on the method and setting. For some assays here: In cells and extracts the contact can be indirect. For some assays here: Where a sequence is shown, tags or fusion partners need not be part of it. Some binding calls cover weakened binding; strength is not graded here. Each block holds one binder with its values, some of them ahead of it.

Chains of the proteins cited; added tags and fusions are not shown. Lines headed by an entry give the natural chain unless they say otherwise; changes in a name come on top. A line that says so, or that is headed by a name, gives the form on record, which may keep a tag or linker. Residues count along the entry.
UniProt P11717: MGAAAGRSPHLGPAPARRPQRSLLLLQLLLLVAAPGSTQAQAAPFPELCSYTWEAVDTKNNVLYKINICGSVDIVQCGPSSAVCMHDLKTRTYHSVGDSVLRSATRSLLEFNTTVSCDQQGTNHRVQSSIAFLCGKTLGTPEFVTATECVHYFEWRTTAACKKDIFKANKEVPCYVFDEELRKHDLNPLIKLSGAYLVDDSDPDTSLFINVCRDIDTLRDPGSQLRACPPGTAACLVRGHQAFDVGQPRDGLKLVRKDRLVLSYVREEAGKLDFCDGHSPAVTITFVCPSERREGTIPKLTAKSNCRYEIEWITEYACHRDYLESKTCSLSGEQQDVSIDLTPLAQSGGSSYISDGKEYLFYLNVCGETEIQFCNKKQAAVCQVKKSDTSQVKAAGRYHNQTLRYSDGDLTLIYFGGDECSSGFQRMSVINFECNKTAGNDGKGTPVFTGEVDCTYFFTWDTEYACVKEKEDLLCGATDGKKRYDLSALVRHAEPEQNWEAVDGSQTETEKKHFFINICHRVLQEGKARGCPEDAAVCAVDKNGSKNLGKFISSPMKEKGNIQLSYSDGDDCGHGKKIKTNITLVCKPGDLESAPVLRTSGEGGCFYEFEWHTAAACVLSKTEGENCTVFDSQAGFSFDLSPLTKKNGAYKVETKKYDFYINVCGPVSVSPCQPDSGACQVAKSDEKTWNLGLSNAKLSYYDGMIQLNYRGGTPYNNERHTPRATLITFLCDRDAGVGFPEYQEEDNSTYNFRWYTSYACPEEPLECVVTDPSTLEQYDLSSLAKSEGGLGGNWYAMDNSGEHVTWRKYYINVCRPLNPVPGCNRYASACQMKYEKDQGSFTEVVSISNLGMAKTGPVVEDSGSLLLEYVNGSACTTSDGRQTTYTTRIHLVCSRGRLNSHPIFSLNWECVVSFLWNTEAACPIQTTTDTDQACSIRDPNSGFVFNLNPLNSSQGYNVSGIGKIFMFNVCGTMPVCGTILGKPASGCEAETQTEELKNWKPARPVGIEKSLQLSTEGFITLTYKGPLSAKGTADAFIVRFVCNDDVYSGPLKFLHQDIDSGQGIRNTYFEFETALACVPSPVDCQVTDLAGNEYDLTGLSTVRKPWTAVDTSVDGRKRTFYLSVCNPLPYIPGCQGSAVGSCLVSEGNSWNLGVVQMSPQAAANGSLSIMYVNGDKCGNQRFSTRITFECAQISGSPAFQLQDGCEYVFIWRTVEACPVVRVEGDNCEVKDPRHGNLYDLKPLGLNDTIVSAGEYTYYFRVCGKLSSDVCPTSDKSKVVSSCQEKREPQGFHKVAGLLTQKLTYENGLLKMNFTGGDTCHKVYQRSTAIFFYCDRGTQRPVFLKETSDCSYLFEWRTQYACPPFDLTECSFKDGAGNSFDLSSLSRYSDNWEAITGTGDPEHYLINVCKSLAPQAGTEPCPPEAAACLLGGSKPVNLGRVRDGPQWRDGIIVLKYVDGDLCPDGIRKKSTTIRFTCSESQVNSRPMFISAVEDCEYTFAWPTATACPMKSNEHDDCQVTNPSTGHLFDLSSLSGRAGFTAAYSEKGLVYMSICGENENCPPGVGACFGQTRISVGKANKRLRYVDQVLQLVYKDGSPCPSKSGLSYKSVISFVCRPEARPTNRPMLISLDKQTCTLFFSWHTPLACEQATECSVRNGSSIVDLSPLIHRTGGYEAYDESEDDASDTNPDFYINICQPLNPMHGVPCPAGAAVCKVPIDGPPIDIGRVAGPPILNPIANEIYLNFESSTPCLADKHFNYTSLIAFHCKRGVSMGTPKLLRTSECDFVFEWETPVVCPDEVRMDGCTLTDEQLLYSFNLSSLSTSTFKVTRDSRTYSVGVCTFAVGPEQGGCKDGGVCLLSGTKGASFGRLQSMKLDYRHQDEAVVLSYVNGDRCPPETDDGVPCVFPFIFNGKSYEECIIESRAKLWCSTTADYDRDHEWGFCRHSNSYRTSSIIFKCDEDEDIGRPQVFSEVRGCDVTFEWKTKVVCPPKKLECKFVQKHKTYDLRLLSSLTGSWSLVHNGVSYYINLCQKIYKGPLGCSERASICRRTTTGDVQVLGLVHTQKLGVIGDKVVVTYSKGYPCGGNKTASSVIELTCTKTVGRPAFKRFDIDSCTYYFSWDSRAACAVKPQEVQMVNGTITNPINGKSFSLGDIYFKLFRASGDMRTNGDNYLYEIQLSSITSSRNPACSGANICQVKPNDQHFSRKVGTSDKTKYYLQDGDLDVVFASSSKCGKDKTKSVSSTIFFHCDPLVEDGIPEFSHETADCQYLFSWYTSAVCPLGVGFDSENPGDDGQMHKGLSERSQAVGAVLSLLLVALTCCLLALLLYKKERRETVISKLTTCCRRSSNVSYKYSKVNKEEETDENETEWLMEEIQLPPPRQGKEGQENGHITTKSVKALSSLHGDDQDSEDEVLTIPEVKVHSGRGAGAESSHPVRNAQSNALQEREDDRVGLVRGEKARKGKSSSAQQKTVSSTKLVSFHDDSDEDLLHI
Full-length human CI-MPR (residues Q41-I2491) tagged at its C-terminal end with mVenus: residues 41-2491 of P11717
CI-MPR domains I-III (residue Q41-L489) with Rhodopsin 1D4 tag: residues 41-489 of P11717

Assays:
[1] = target: Full-length human CI-MPR (residues Q41-I2491) tagged at its C-terminal end with mVenus (human) (UniProt P11717); test: FRET or BRET; FLIM-FRET in living COS 7 cells co-transfected with donor (mTFP1 fusion) and acceptor (mVenus fusion); time correlated single photon counting, 440-nm pulsed laser
[2] = target: CI-MPR domains I-III (residue Q41-L489) with Rhodopsin 1D4 tag (human) (UniProt P11717); test: SPR; biotinylated β-GCase on a CM5 chip; LIMP-2 mixed 1:1 with CI-MPR domains I-III, or the same amount of LIMP-2 mixed with BSA, flowed over the chip

- binding [1]: no binding
B1: Full-length human LIMP-2 N325Q tagged at its C-terminal end with mTFP1 (protein, UniProt Q14108 1-478)
chain: MGRCCFYTAGTLSLLLLVTSVTLLVARVFQKAVDQSIEKKIVLRNGTEAFDSWEKPPLPVYTQFYFFNVTNPEEILRGETPRVEEVGPYTYRELRNKANIQFGDNGTTISAVSNKAYVFERDQSVGDPKIDLIRTLNIPVLTVIEWSQVHFLREIIEAMLKAYQQKLFVTHTVDELLWGYKDEILSLIHVFRPDISPYFGLFYEKNGTNDGDYVFLTGEDSYLNFTKIVEWNGKTSLDWWITDKCNMINGTDGDSFHPLITKDEVLYVFPSDFCRSVYITFSDYESVQGLPAFRYKVPAEILANTSDNAGFCIPEGNCLGSGVLQVSICKNGAPIIMSFPHFYQADERFVSAIEGMHPNQEDHETFVDINPLTGIILKAAKRFQINIYVKKLDDFVETGDIRTMVFPVMYLNESVHIDKETASRLKSMINTTLIITNIPYIIMALGVFFGLVFTWLACKGQGSMDEGTADERAPLIRT

- binding [2]: binds
B2: Wild-type LIMP-2 (soluble luminal domain; producing cells not stated for the experiment) (domain or fragment, UniProt Q14108 28-431)
chain: VFQKAVDQSIEKKIVLRNGTEAFDSWEKPPLPVYTQFYFFNVTNPEEILRGETPRVEEVGPYTYRELRNKANIQFGDNGTTISAVSNKAYVFERDQSVGDPKIDLIRTLNIPVLTVIEWSQVHFLREIIEAMLKAYQQKLFVTHTVDELLWGYKDEILSLIHVFRPDISPYFGLFYEKNGTNDGDYVFLTGEDSYLNFTKIVEWNGKTSLDWWITDKCNMINGTDGDSFHPLITKDEVLYVFPSDFCRSVYITFSDYESVQGLPAFRYKVPAEILANTSDNAGFCIPEGNCLGSGVLNVSICKNGAPIIMSFPHFYQADERFVSAIEGMHPNQEDHETFVDINPLTGIILKAAKRFQINIYVKKLDDFVETGDIRTMVFPVMYLNESVHIDKETASRLKSMINT
